# About 2,100 (0.66%) of roughly 320,000 compounds were called active. The inconclusive results got no clear call from the source; some entries with a clear call stand among them for comparison. The call rests on the fitted dose curve; in most records, active means well fitted inhibition curve with a large enough effect in the signal ratio, with a control signal flat (not every such curve was filed as active); inconclusive means small, poorly fitted or top-dose-only effect, or effect the other way, or a change in a side signal; inactive means flat fitted curve, though single readings scatter; the % refers to the signal ratio. A potency beside an inconclusive call is a rough fit, not a confirmed value.
# Test: qHTS Assay for Lipid Storage Modulators in Drosophila S3 Cells
# Conditions: BODIPY lipid droplet fluorescence, 18-24 h, cells fed with added oleic acid; lipid storage change, negative = inhibition: at 46.1 µM (top of the series) unless noted
# Outline: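 Drosophila S3 cells loaded with oleic acid (400 uM, as added) and compounds at several concentrations; lipid droplets imaged by 488-nm laser-scanning cytometry, 500–530 nm intensity and object ratio to cell channel. Percent activity normalized to 20 uM Triacsin C.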
# On the % scale 0 is the no-effect control and ±100 the full control effect; potency means the concentration at half of the fitted maximal effect.
SMILES,"lipid storage change, negative = inhibition",Potency
COc1ccc(CN2C(=O)CCC2(C)C(=O)NC2CCCCC2)c(OC)c1 (stereo not given),inconclusive: 8.85%,
CCc1ccc(NC(=O)C(=O)NNC(=O)c2cccc(OC)c2)cc1,,"inconclusive: 25.9 µM [rising, single point]"
Cc1cccc(N2CCN(C(=O)c3ccc(NS(=O)(=O)c4c(C)noc4C)cc3)CC2)c1C,inconclusive: -14.3%,
O=S1(=O)CCN(OCc2ccc(Cl)cc2)CC1,inconclusive: -32.9%,
O=C(COc1ccc2c(c1)CCC2)NCc1ccccc1,,"inconclusive: 0.0052 µM [falling, full curve, poor fit]"
CC(=O)N1CCN(C(=O)CC2OC(=O)c3ccccc32)CC1 (stereo not given),inconclusive: -14.2%,
CCOCCCNC(=O)C1CC(=O)N(CCc2ccccc2)C1 (stereo not given),inconclusive: 10.4%,
CN1CCCN(C(=O)c2cccc(Br)c2)CC1,,"inconclusive: 29.1 µM [activator, single point]"
COc1ccc2nc(NC(=O)c3ccc([N+](=O)[O-])o3)sc2c1,,"inconclusive: 4.11 µM [falling, single point]"
Cc1ccc(NC(=O)C2CCCN(C3=NS(=O)(=O)c4ccccc43)C2)c(O)c1 (stereo not given),,"inconclusive: 5.17 µM [falling, partial curve, poor fit]"
Cn1c(=O)c2nc3ccccc3nc2n(C)c1=O,,"inconclusive: 23.1 µM [activator, single point]"
CCn1c(C(=O)N2CCC(Cc3ccccc3)CC2)cc2sccc21,,"inconclusive: 6.51 µM [falling, single point]"
Cc1ccccc1NC(=O)c1c([N+](=O)[O-])cnn1C,inconclusive: 19%,
Cn1c(Cn2nnc3ccccc32)nnc1SCC(N)=O,,"inconclusive: 29.1 µM [falling, single point]"
C[C@H]1O[C@@H](O[C@H]2[C@@H](O)C[C@H](O[C@H]3[C@@H](O)C[C@H](O[C@H]4CC[C@@]5(C)[C@H](CC[C@@H]6[C@@H]5C[C@@H](O)[C@]5(C)[C@@H](C7=CC(=O)OC7)CC[C@]65O)C4)O[C@@H]3C)O[C@@H]2C)C[C@H](O)[C@@H]1O,inconclusive: -19.3%,
CCc1nc2ccccc2c(C(=O)Oc2ccc(C(=O)OC)cc2)c1C,,"inconclusive: 9.2 µM [activator, partial curve]"
Cc1cc([N+](=O)[O-])ccc1NC(=O)c1cncc(Br)c1,,"inconclusive: 18.4 µM [activator, single point]"
Cc1ccc(S(=O)(=O)/N=C(\N)Nc2nc(C)c3ccccc3n2)cc1,inconclusive: 13%,
CCCN(Cc1ccc(N(C)C)cc1)CC1CC1,inconclusive: 37.1%,
Cn1c(SCC(=O)N2CCOCC2)nnc1-c1cccc(NC(=O)c2ccccc2)c1,inconclusive: 2.42%,
CCN(C(=O)CN1CCOCC1)c1c(N)n(Cc2ccccc2)c(=O)[nH]c1=O,,"inconclusive: 14.6 µM [falling, partial curve]"
O=C(Nc1nc(-c2ccccc2)cs1)c1ccc(S(=O)(=O)N2CCc3ccccc32)cc1,,"inconclusive: 0.82 µM [activator, full curve]"
CCCCn1c(N)c(N(CCOC)C(=O)c2ccc(-c3ccccc3)cc2)c(=O)[nH]c1=O,inconclusive,

# 13 of the compounds above, with tabs.
SMILES	lipid storage change, negative = inhibition	Potency
CCc1ccc(NC(=O)C(=O)NNC(=O)c2cccc(OC)c2)cc1		inconclusive: 25.9 µM [rising, single point]
O=S1(=O)CCN(OCc2ccc(Cl)cc2)CC1	inconclusive: -32.9%	
O=C(COc1ccc2c(c1)CCC2)NCc1ccccc1		inconclusive: 0.0052 µM [falling, full curve, poor fit]
CCOCCCNC(=O)C1CC(=O)N(CCc2ccccc2)C1 (stereo not given)	inconclusive: 10.4%	
CN1CCCN(C(=O)c2cccc(Br)c2)CC1		inconclusive: 29.1 µM [activator, single point]
Cc1ccc(NC(=O)C2CCCN(C3=NS(=O)(=O)c4ccccc43)C2)c(O)c1 (stereo not given)		inconclusive: 5.17 µM [falling, partial curve, poor fit]
CCn1c(C(=O)N2CCC(Cc3ccccc3)CC2)cc2sccc21		inconclusive: 6.51 µM [falling, single point]
Cc1ccccc1NC(=O)c1c([N+](=O)[O-])cnn1C	inconclusive: 19%	
Cn1c(Cn2nnc3ccccc32)nnc1SCC(N)=O		inconclusive: 29.1 µM [falling, single point]
CCc1nc2ccccc2c(C(=O)Oc2ccc(C(=O)OC)cc2)c1C		inconclusive: 9.2 µM [activator, partial curve]
Cc1cc([N+](=O)[O-])ccc1NC(=O)c1cncc(Br)c1		inconclusive: 18.4 µM [activator, single point]
O=C(Nc1nc(-c2ccccc2)cs1)c1ccc(S(=O)(=O)N2CCc3ccccc32)cc1		inconclusive: 0.82 µM [activator, full curve]
CCCCn1c(N)c(N(CCOC)C(=O)c2ccc(-c3ccccc3)cc2)c(=O)[nH]c1=O	inconclusive	

# The list goes on:

SMILES,"lipid storage change, negative = inhibition",Potency
O=C(/C=C/C(=O)NCc1cccs1)NCc1cccs1,,"inconclusive: 29.1 µM [activator, single point]"
O=C(NCCCn1ccnc1)c1ccc(NS(=O)(=O)c2cccc([N+](=O)[O-])c2)cc1,inconclusive: 6.82%,
COc1ccccc1NC(=O)C1=C(C)NC2=C(C(=O)CCC2)C1c1ccc2c(c1)OCO2 (stereo not given),inconclusive: 19.3%,
O=C(NCC1CCCO1)C1CCN(C2CCN(C(=O)Cc3ccsc3)CC2)CC1 (stereo not given),inactive,
Cc1ccc(C(=O)NC(=S)NNC(=O)c2cccc([N+](=O)[O-])c2)cc1,inconclusive: 112%,
Cc1c(C(=O)N2CCN(c3ncccn3)CC2)sc2nc3n(c(=O)c12)CCCC3,,"inconclusive: 18.4 µM [activator, partial curve]"
Nc1nonc1C(=O)N/N=C/c1ccc(-c2cccc(C(=O)O)c2)o1,inconclusive: -2.56%,
CCn1ccnc1C(O)(c1ccccc1)c1ccccc1,inconclusive: 54.5%,
S=C(NCCc1ccccc1)Nc1ccc(Cl)cc1,,"inconclusive: 2.59 µM [activator, partial curve]"
Cc1c(C)c2ccc(O)c(CN3CCCC3)c2oc1=O,,"inconclusive: 2.91 µM [falling, partial curve, poor fit]"
CCCCc1ccc(NS(=O)(=O)c2cccc(C(=O)N3CCNC(=O)C3)c2)cc1,inconclusive,
Cc1ccc(S(=O)(=O)N2CCOCC2)cc1NC(=O)Cn1nc(C)c([N+](=O)[O-])c1C,inconclusive: -0.813%,
COc1cc2[nH]c(=S)nc(NC3CCCC3)c2cc1OC,inconclusive: 14.6%,
Cc1nc2cc(NC(=O)C3COc4ccccc4O3)ccc2s1 (stereo not given),inactive,
CCSc1nc2c(c(=O)[nH]1)C(c1cccnc1)C(C(=O)OC(C)C)=C(C)N2 (stereo not given),inconclusive: -10.6%,
CCN(CC(=O)NCc1ccc(F)cc1)C(=O)/C=C/c1ccc(OC)cc1,inconclusive: -40.5%,
Cc1cccc(NC(=O)Cn2cnc3ccc(S(=O)(=O)N4CCC(C)CC4)cc3c2=O)n1,inconclusive: 6.5%,
Nc1nnc(SCc2coc(-c3ccc(Cl)cc3)n2)s1,,"inconclusive: 0.651 µM [activator, single point]"
CCN(CC)C(=O)CN(Cc1ccccc1)S(=O)(=O)c1ccc(F)cc1,,"inconclusive: 29.1 µM [activator, single point]"
O=C(CN1CCN(c2ccc(O)cc2)CC1)NCC(=O)Nc1ccc(F)c(F)c1F,,"inconclusive: 10.3 µM [activator, partial curve]"
Cc1ccc2[nH]c3c(=O)n(CC(=O)NCCCN4CCN(c5ccc(F)cc5)CC4)ncc3c2c1,,"inconclusive: 6.51 µM [activator, single point]"
Cc1cccc(NC(=O)CCn2ccnc2C)c1,inconclusive: -16.2%,
